# Library screening results

Measurements from “University of Dundee, Small-Polar-MMV Screening Library” (2021), ChEMBL document CHEMBL3988442.

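Viability assay of Plasmodium falciparum sporozoites; the read-out is not stated. The concentration is filed as 10 mM, unlikely as a test dose, so the dose is not known. Higher reads as lower viability (inferred: compounds with an IC50 in retests scored well above the rest). Strong results were mostly tested again. About 34,000 compounds were tested under these conditions; 0.84% (about 280) showed 50% or more at least once.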

Results are given as percent effect. How 0% and 100% were set is not recorded. Most values in the screen are low, and negative values occur. This is an unselected part of the compounds tested. Two or more numbers in one place are separate tests of the same structure; such repeats can differ widely.

| # | structure | percent effect |
|---|---|---|
| 1 | `Cc1nc(C)n(CC2CCCCN2CC(=O)Nc2ccncc2)n1` (stereo not shown) | -3.598% |
| 2 | `CC(CNC(=O)NCc1ccco1)N1CCc2sccc2C1` (stereo not shown) | -14.66% & -10.89% |
| 3 | `CN(C)CCN1CCCC12CCN(Cc1nccn1C)CC2.O=C(O)C(F)(F)F.O=C(O)C(F)(F)F.O=C(O)C(F)(F)F` | 3.152% |
| 4 | `CCCNC(=O)NC(=O)CN(CC(C)O)c1ccccc1` (stereo not shown) | -16.42% |
| 5 | `[H][C@]12CC[C@]([H])(CN(Cc3ccccc3)C1)N(Cc1snnc1C)C2` | -9.664% & -4.589% |
| 6 | `Cc1cccc(CC2CCCN(C(=O)C3CCOCC3)C2)n1` (stereo not shown) | 3.652% |
| 7 | `O=C(c1cc(Cl)c2c(c1)OCCO2)N1CCCC(n2cncn2)C1` (stereo not shown) | -7.843% |
| 8 | `CN(Cc1ccco1)C(=O)CN1CCOC(Cn2cncn2)C1` (stereo not shown) | -0.3069% |
| 9 | `CCOc1ccc(C(=O)N2CCCC2c2c(C)nn(C)c2Cl)cn1` (stereo not shown) | 1.856% |
| 10 | `N#Cc1cccc(CNCCNC(=O)Cc2cccc(F)c2)c1` | 14.05% |
| 11 | `COCC1CN(CC2CC2)Cc2ncn(CC3CC3)c21` (stereo not shown) | -0.7895% |
| 12 | `CN(C)C(=O)Cc1ccc(NC(=O)NC2CC2)cc1` | 7.561% |
| 13 | `O=C(c1cc[nH]n1)N1CCc2cc(Br)sc2C1` | -6.842% |
| 14 | `COc1ccc(-c2cnc(N(C)C)nc2C2CN(C(C)=O)CCO2)cc1` (stereo not shown) | 14.8% |
| 15 | `COC(=O)C(NC(=O)CC(C)C)c1cc(F)ccc1F` (stereo not shown) | -3.375% |
| 16 | `O=C(C1SCCc2sccc21)N1CC(O)C1` (stereo not shown) | 6.257% |
| 17 | `CCn1cc(CN(C)S(=O)(=O)c2cc(Cl)ccc2Cl)cn1` | -0.4386% |
| 18 | `Cc1cnc(CN(C)C2CCN(Cc3nnc(C4CC4)o3)C2)o1` (stereo not shown) | 13.1% |
| 19 | `N#Cc1cn(C2CC2)c(=O)n(Cc2ncc(-c3cccs3)o2)c1=O` | -3.441% |
| 20 | `CN(C)C(=O)COCC1CN(Cc2cccs2)Cc2ncn(C)c21.O=C(O)C(F)(F)F.O=C(O)C(F)(F)F` (stereo not shown) | 3.246% |
| 21 | `[H][C@@]12CC[C@@](O)(c3ccc(C)cn3)[C@]1([H])CN(Cc1ccc(Cl)cc1Cl)C2` | 7.995% |
| 22 | `CCCN(C(=O)c1ccncc1)c1nc2c(s1)CCc1c-2cnn1C` | 11.45% |
| 23 | `CCS(=O)(=O)NC(C(=O)NC)c1ccc(F)c(F)c1` (stereo not shown) | -16.01% |
| 24 | `Cn1c(=O)cc(C(=O)NC(Cc2ccsc2)c2cccnc2)[nH]c1=O` (stereo not shown) | 7.056% |
| 25 | `O=C(CC1CCC2(CC1)CCN(Cc1nccs1)CC2)N1CC=CC1` | 2.193% |
| 26 | `Cc1nc(N2CCCN(c3ncccn3)CC2)c2cnn(C)c2n1` | -11.23% |
| 27 | `CCCC(NC(=O)c1ccccc1Br)c1nnn[nH]1` (stereo not shown) | -10.78% |
| 28 | `Cc1nc(CN(C)C2CCCN(c3cccnn3)C2)no1` (stereo not shown) | -1.962% |
| 29 | `CCn1cnnc1C1CCN(C(=O)c2ccc(Cl)cc2OC)CC1` | 23.49% |
| 30 | `CC(=O)N[C@@H]1CN(C(=O)CC2CC2)C[C@H]1O` | -7.306% |
| 31 | `CCc1noc(CC)c1CNC(=O)Nc1cccc(C(=O)N(C)C)c1` | -12.57% |
| 32 | `CC(C)S(=O)(=O)N1C[C@@H](O)[C@H](N(C)Cc2ccc(F)cc2)C1` | 7.705% |
| 33 | `O=C(O)CC(O)(CC(=O)O)C(=O)O.OC1CCCN(Cc2ccnc(-c3cccnc3)n2)C1` (stereo not shown) | 0.1073% |
| 34 | `COc1ccc(-c2nnc(SC(C)C(=O)NCC(C)C)[nH]2)c(OC)c1` (stereo not shown) | -11.61% |
| 35 | `c1ccc(COc2ccccc2CNC2CCc3ncnn3C2)cc1` (stereo not shown) | 5.177% |
| 36 | `O=C(O)C(F)(F)F.O=S(=O)(c1cccs1)N1Cc2nc(CN3CCCC3)oc2C1` | -18.23% |
| 37 | `CC1=C(C#N)C(=O)NC(=O)/C1=C\c1c(C)nn(-c2ccc(Cl)cc2)c1O` | 6.029% |
| 38 | `O=C(c1ccc(-n2ccnc2)nc1)N1CCCC(n2cccn2)C1` (stereo not shown) | 1.484% |
| 39 | `Cc1ccccc1Oc1ncccc1CNS(C)(=O)=O` | 5.671% |
| 40 | `Cc1oc(-c2ccoc2)nc1CN1CCCCC1CCn1cccn1` (stereo not shown) | -8.158% |
| 41 | `Cc1cccc(-c2nccnc2C2CCCN(C)C2)c1C` (stereo not shown) | 3.432% |
| 42 | `Cc1ccc(CNC(=O)NCCCO)cc1` | -4.98% |
| 43 | `O=C(O)C(F)(F)F.[H][C@]12CCC[C@@H](CN(C)C)[C@@]1([H])CN(c1nccc(C(F)(F)F)n1)C2` | -0.8554% |
| 44 | `CN(Cc1ccsc1)C(=O)CN1CCCCC1Cn1cccn1` (stereo not shown) | -2.23% |
| 45 | `CCn1ccnc1CN1CCN(C(C)C(=O)N2CCCC2)CC1` (stereo not shown) | 1.416% |
| 46 | `CC(C)n1c(=O)c2ccccc2n(CCN2CCCCC2)c1=O` | -5.22% |
| 47 | `O=C(Nc1nnc[nH]1)C(c1cccc(F)c1)N1CCOCC1` (stereo not shown) | -10.78% |
| 48 | `OC[C@@H](O)CN(CCC(F)(F)F)c1ncc(Cl)cn1` | -3.448% |
| 49 | `Cc1ncc(CN(C)CC2CCCN2c2cccnn2)s1` (stereo not shown) | 0% |
| 50 | `COc1cc(C(=O)N2CCCC(c3cc(C)[nH]n3)C2)ccc1C` (stereo not shown) | -3.863% |
| 51 | `CN(C)c1nccc(C2CN(c3cnccn3)CCO2)n1` (stereo not shown) | 9.258% |
| 52 | `O=C(NC1(C(=O)NC2CCCC2)CCCC1)c1ccc2[nH]ncc2c1` | -7.214% |
| 53 | `Cc1ncsc1CNc1cc(N2CCCC2CO)ncn1` (stereo not shown) | -3.714% |
| 54 | `c1cnc(N2CCCC(c3cc4cccnc4[nH]3)C2)nc1` (stereo not shown) | -0.7791% |
| 55 | `CCN1CCOCC2(CCCN(C(=O)c3ccccc3F)C2)C1.O=C(O)C(F)(F)F` (stereo not shown) | 9.928% |
| 56 | `CNc1cc(C2CCCN(C(=O)c3ccc(=O)[nH]n3)C2)ccn1` (stereo not shown) | 6.619% |
| 57 | `Cc1ccc(S(=O)(=O)NC(=O)c2cc(S(C)(=O)=O)ccc2C)s1` | -4.772% |
| 58 | `O=C(O)C(F)(F)F.O=C(O)C(F)(F)F.O=S(=O)(C1CC1)N1CCC2(CC1)CN(Cc1ccccn1)CCO2` | 0.5199% |
| 59 | `CN(C)c1cc(C2CCCN(S(=O)(=O)C3CCCC3)C2)ccn1` (stereo not shown) | 0.9037% |
| 60 | `Cc1ccoc1-c1nnc(CN2CCn3c(nnc3C(C)C)C2)o1` | 4.798% |
| 61 | `O=C(CCn1ccc2ccc(F)cc21)/N=c1\[nH]nc(C2CCCO2)s1` (stereo not shown) | 3.388% |
| 62 | `O=C(c1cccs1)N1CCc2c(nc(N3CCCC3)[nH]c2=O)C1` | 10.14% |
| 63 | `CC(=O)c1ccc(CNC(=O)c2c(C)cc(C)cc2C)nc1C` | -12.91% |
| 64 | `O=C(O)C(F)(F)F.O=C(O)c1c(-c2cccnc2)ncc2c1CCN(CC1CCOC1)C2` (stereo not shown) | -5.109% |
| 65 | `Cc1ocnc1C(=O)N(C)[C@@H]1CC[C@@H](Oc2ccccc2)[C@@H]1O` | 8.941% |
| 66 | `O=C(Nc1cccc(CN2CCOC2=O)c1)N1CCOCC1` | 8.735% |
| 67 | `O=C(NCCNC(=O)c1scnc1Cl)c1cccs1` | -3.221% |
| 68 | `Cc1cc(C)n(C2CCCN(C(=O)Cc3csc(C)n3)C2)n1` (stereo not shown) | -0.5757% |
| 69 | `Cc1ccc(-n2ccnc2)c(C(=O)NCCOCC2CCCO2)c1` (stereo not shown) | 5.506% |
| 70 | `Cc1ccoc1C(=O)N1CCCC(c2cc(C(F)(F)F)[nH]n2)C1` (stereo not shown) | 3.809% |
| 71 | `NCC1CCN(c2nc(C3CCCC3)nc3c2CCNCC3)C1` (stereo not shown) | -2.842% |
| 72 | `COc1cc(CNCc2ccnc(N3CCCCC3)c2)cc(OC)c1` | 3.028% |
| 73 | `Cc1cnn(CC2CCCN2C(=O)c2csc(-c3nnc[nH]3)n2)c1` (stereo not shown) | 1.599% |
| 74 | `Cc1nc(C)c(C(=O)NCCNC(=O)Cc2ccc(F)cc2)s1` | 19.75% |
| 75 | `Cc1oc(-c2ccco2)nc1CC(=O)N1CCC(C(O)C(F)(F)F)CC1` (stereo not shown) | 2.775% |